Experimental data as given in publication PMC5683655.
These are yes or no findings as the source states them, for the method shown. In cells and extracts the contact can be indirect. Some binding calls cover weakened binding; strength is not graded here.

Tests used:
[1] = target: T1, LIN-37 (C. elegans (endogenous in late embryos)) (UniProt Q23482); test: co-IP; lin-35(n745) null (LIN-35 protein null) late embryo extracts; anti-EFL-1 or anti-LIN-37 antibody crosslinked to Protein A Dynabeads; 5 mg lysate, 2 hours at 4°C; lysis buffer 25 mM HEPES pH 7.6, 150 mM NaCl, 0.1% Nonidet P-40; western blot
T1 sequence: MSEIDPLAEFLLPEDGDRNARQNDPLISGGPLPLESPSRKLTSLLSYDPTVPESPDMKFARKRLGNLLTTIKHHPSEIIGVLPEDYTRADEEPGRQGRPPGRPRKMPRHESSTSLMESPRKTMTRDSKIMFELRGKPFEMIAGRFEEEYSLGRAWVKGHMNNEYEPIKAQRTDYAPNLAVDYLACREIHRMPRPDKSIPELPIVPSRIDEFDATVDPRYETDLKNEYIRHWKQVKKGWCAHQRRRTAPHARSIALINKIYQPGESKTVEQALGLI

[2] = target: T1, LIN-37 (C. elegans (endogenous in late embryos)); test: co-IP; wild-type (N2) late embryo extracts; anti-EFL-1 or anti-LIN-37 antibody crosslinked to Protein A Dynabeads; 5 mg lysate, 2 hours at 4°C; lysis buffer 25 mM HEPES pH 7.6, 150 mM NaCl, 0.1% Nonidet P-40; western blot

B1: LIN-54 (protein, UniProt Q95QD7 1-435)
chain: MNQGEIVYQDDDDYYDESEIYDNYEEGAEFIEVNGQLVPHNPNLQAQQNRPGTSSMIQQHNRSMEVNQGLVKDEPIDTSSHRVYVPPPRPVQRKLFQPGPSTPGSSQYTVRNLSNLSGSPSMYDRQPASLPRTVQPMGLEMGNSEQRKVYIDMKDHVSHIRLKTKKKVFAPGQRKPCNCTKSQCLKLYCDCFANGEFCRDCNCKDCHNNIEYDSQRSKAIRQSLERNPNAFKPKIGIARGGITDIERLHQKGCHCKKSGCLKNYCECYEAKVPCTDRCKCKGCQNTETYRMTRYKNSGGAVSNTNALMSLTNASSTATPDSGPGSVVTDEHGDDYEDMLLSHKPKVEMDPRRFPWYYMTDEVVEAATMCMVAQAEEALNYEKVQTEDEKLINMEKLVLREFGRCLEQMITNTTELTQDLDAAPTDDIPGPSTSTS
binding [1]: binds | binding [2]: binds
